Reference: article doi:10.1101/2025.07.07.663440
Results are given in words; binding and its absence hold for the method and conditions named. Binding seen in cells or lysates may run through a third protein. These calls come from enrichment with a bait or labelling near it, and not all partners need be listed.

Sequences of proteins named here, by UniProt entry; tags and fusion partners are left off.
UniProt Q13263: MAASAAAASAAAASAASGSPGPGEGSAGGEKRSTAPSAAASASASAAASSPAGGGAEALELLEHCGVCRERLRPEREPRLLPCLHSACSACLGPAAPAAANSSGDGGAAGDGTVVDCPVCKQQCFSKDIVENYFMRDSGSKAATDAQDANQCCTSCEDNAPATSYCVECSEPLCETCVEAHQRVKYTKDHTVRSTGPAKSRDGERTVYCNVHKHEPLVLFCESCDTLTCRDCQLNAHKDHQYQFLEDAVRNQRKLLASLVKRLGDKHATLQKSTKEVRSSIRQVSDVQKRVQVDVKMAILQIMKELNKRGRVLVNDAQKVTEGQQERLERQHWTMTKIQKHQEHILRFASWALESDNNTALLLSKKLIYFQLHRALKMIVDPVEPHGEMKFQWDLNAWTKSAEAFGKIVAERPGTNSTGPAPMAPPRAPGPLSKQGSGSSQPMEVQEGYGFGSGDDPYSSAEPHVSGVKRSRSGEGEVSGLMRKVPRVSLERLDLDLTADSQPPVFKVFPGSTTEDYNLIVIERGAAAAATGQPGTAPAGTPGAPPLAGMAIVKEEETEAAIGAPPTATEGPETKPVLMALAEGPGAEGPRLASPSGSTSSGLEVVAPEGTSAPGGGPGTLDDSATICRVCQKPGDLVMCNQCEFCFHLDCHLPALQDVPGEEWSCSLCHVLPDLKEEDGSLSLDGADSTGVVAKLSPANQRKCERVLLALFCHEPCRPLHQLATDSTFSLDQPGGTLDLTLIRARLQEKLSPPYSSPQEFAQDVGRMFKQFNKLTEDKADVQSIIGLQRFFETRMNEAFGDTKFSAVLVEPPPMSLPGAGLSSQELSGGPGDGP

Target: PRPF8, endogenous (human (endogenous in HEK293T)) (UniProt Q6P2Q9)
Assay: affinity purification with mass spectrometry

binding: binds
Substance: Tripartite motif-containing 28 protein (TRIM28), endogenous, non-phosphorylated state (from UniProt Q13263 1-835)
